# Cell number after 72 h of treatment

Source: doi:10.1371/journal.pone.0140310, primary screening data, rounded.

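Human melanoma cells were exposed to a pair of drugs for 72 h in 1,536-well plates and read by automated microscopy after fixing and staining. Each value is the count of nuclei relative to DMSO-treated wells, in %, so that 100 equals the control. Concentrations were fixed for each drug; these are the lower of two levels, a fifth of the higher. The file gives one value for each pair and line, without errors, so small differences may be noise.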
Only some of the drugs and lines screened are listed, without regard to their results.
A dash means that no value is listed here.

Drugs:
temozolomide: Cn1nnc2c(C(N)=O)ncn2c1=O at 2000 nM
fingolimod: CCCCCCCCc1ccc(CCC(N)(CO)CO)cc1 at 2000 nM
palbociclib: CC(=O)c1c(C)c2cnc(Nc3ccc(N4CCNCC4)cn3)nc2n(C2CCCC2)c1=O at 40 nM
PF-562271: CN(c1ncccc1CNc1nc(Nc2ccc3c(c2)CC(=O)N3)ncc1C(F)(F)F)S(C)(=O)=O at 80 nM
enzastaurin: Cn1cc(C2=C(c3cn(C4CCN(Cc5ccccn5)CC4)c4ccccc34)C(=O)NC2=O)c2ccccc21 at 800 nM
KU-0063794: COc1ccc(-c2ccc3c(N4CCOCC4)nc(N4C[C@@H](C)O[C@@H](C)C4)nc3n2)cc1CO at 20 nM
PLX4720: CCCS(=O)(=O)Nc1ccc(F)c(C(=O)c2c[nH]c3ncc(Cl)cc23)c1F at 80 nM
VX-702: NC(=O)c1ccc(N(C(N)=O)c2c(F)cccc2F)nc1-c1ccc(F)cc1F at 400 nM
YM155: COCC[n+]1c2c(n(Cc3cnccn3)c1C)C(=O)c1ccccc1C2=O at 0.4 nM
dasatinib: Cc1nc(Nc2ncc(C(=O)Nc3c(C)cccc3Cl)s2)cc(N2CCN(CCO)CC2)n1 at 4 nM

| Combination | 501mel | LB2518-MEL | A375 | C32 | IPC-298 | A2058 | A101D | MEL-HO |
|---|---|---|---|---|---|---|---|---|
| PF-562271 and PLX4720 | - | 108 | 79.6 | 95.6 | 92.0 | 75.8 | 114 | 88.0 |
| fingolimod and palbociclib | - | 88.7 | 53.0 | 83.4 | 93.1 | 80.6 | 80.1 | 88.1 |
| fingolimod and YM155 | - | 107 | 51.8 | 98.6 | 92.8 | 73.4 | 74.1 | 93.4 |
| PLX4720 and YM155 | - | 90.0 | 67.5 | 74.9 | 99.1 | 84.9 | 88.5 | 89.9 |
| dasatinib and PLX4720 | - | 86.6 | 70.9 | 97.7 | 80.0 | 91.8 | 87.7 | 74.1 |
| enzastaurin and PF-562271 | - | 96.9 | 80.2 | 81.3 | 102 | 86.8 | 85.9 | 107 |
| VX-702 and KU-0063794 | 84.3 | 91.4 | - | 94.5 | 98.0 | 104 | 111 | 98.2 |
| VX-702 and temozolomide | - | 94.4 | 78.2 | 98.7 | 99.9 | 94.3 | 91.0 | 111 |
| palbociclib and PLX4720 | - | 78.0 | 47.6 | 77.3 | 79.0 | 97.1 | 81.7 | 83.7 |
| VX-702 and PF-562271 | - | 97.9 | 81.1 | 93.1 | 90.9 | 76.8 | 86.6 | 91.6 |
| enzastaurin and temozolomide | - | 95.0 | 98.4 | 116 | 93.7 | 86.1 | 87.8 | 102 |
| dasatinib and VX-702 | - | 93.5 | 99.3 | 90.4 | 112 | 85.4 | 89.5 | 83.0 |
| YM155 and VX-702 | - | - | 97.4 | 106 | 87.2 | 67.6 | 102 | 109 |
| temozolomide and KU-0063794 | 90.4 | 87.6 | 142 | 104 | 99.6 | 80.6 | 82.5 | 99.8 |
| temozolomide and PF-562271 | - | 85.7 | 76.1 | 84.7 | 93.4 | 59.6 | 96.3 | 83.8 |
| fingolimod and KU-0063794 | 42.3 | 87.8 | - | 76.8 | 92.5 | 81.3 | 74.6 | 96.6 |
| fingolimod and VX-702 | - | 97.0 | 68.5 | 95.8 | 99.6 | 80.1 | 82.8 | 92.4 |
| dasatinib and KU-0063794 | 92.2 | 90.9 | 92.4 | 62.2 | 85.2 | 80.0 | 79.6 | 83.4 |
| enzastaurin and fingolimod | - | 106 | 79.2 | 116 | 100 | 85.2 | 84.2 | 110 |
| palbociclib and dasatinib | - | 78.3 | 55.9 | 83.8 | 88.6 | 91.7 | 73.7 | 87.9 |
| PF-562271 and fingolimod | - | - | 61.0 | 86.8 | 99.4 | 69.6 | 64.3 | 114 |
| YM155 and dasatinib | - | 77.1 | 78.8 | 85.6 | 87.8 | 62.7 | 61.5 | 87.2 |
| PLX4720 and temozolomide | - | 110 | 70.7 | 96.5 | 97.6 | 89.3 | 108 | 96.0 |
| YM155 and PF-562271 | - | - | 68.8 | 77.4 | 93.6 | 75.6 | 84.6 | 94.1 |
| palbociclib and PF-562271 | - | - | 65.2 | 71.1 | 90.3 | 88.1 | 76.7 | 81.2 |
| fingolimod and temozolomide | - | 110 | 63.3 | 83.8 | 96.8 | 79.7 | 89.4 | 82.5 |
| PLX4720 and fingolimod | - | 110 | 49.1 | 83.4 | 88.5 | 100 | 100 | 83.8 |
| PLX4720 and VX-702 | - | 105 | 84.1 | 97.0 | 92.1 | 107 | 83.3 | 101 |
| fingolimod and dasatinib | - | 92.3 | 75.7 | 91.0 | 96.9 | 81.3 | 87.7 | 89.0 |
| PF-562271 and KU-0063794 | 115 | 86.8 | - | 69.1 | 92.5 | 77.2 | 84.9 | 90.0 |
| KU-0063794 and palbociclib | 58.7 | 88.7 | - | 84.3 | 84.9 | 92.8 | 81.0 | 87.7 |
| temozolomide and dasatinib | - | 91.2 | 82.0 | 75.8 | 99.8 | 78.6 | 83.3 | 88.5 |
| PLX4720 and enzastaurin | - | 100 | 55.7 | 81.2 | 99.9 | 113 | 99.2 | 98.3 |
| PF-562271 and dasatinib | - | 100 | 84.4 | 92.8 | 95.0 | 62.8 | 75.1 | 78.2 |
| YM155 and palbociclib | - | 77.6 | 60.0 | 0.3 | 77.9 | 72.1 | 70.9 | 94.3 |
| enzastaurin and VX-702 | - | 105 | 91.2 | 112 | 105 | 92.2 | 95.5 | 111 |
| YM155 and KU-0063794 | 89.9 | 76.2 | 73.1 | 89.8 | 85.2 | 51.1 | 95.8 | 93.2 |
| palbociclib and temozolomide | - | 80.3 | 65.7 | 83.8 | 89.3 | 89.1 | 90.7 | 78.9 |
| enzastaurin and palbociclib | - | 94.1 | 67.7 | 91.1 | 97.0 | 96.9 | 80.8 | 104 |

Once more, the final 4:

Combination,501mel,LB2518-MEL,A375,C32,IPC-298,A2058,A101D,MEL-HO
enzastaurin and VX-702,-,105,91.2,112,105,92.2,95.5,111
YM155 and KU-0063794,89.9,76.2,73.1,89.8,85.2,51.1,95.8,93.2
palbociclib and temozolomide,-,80.3,65.7,83.8,89.3,89.1,90.7,78.9
enzastaurin and palbociclib,-,94.1,67.7,91.1,97.0,96.9,80.8,104